These are yes or no findings as the source states them, for the method shown. Some binding calls cover weakened binding; strength is not graded here.

Amino acid sequences for entries named in this document (tags omitted). A change or cut given only in a name is not applied to a line headed by its entry. Residues count along the entry.
UniProt P02748, residues 22-559: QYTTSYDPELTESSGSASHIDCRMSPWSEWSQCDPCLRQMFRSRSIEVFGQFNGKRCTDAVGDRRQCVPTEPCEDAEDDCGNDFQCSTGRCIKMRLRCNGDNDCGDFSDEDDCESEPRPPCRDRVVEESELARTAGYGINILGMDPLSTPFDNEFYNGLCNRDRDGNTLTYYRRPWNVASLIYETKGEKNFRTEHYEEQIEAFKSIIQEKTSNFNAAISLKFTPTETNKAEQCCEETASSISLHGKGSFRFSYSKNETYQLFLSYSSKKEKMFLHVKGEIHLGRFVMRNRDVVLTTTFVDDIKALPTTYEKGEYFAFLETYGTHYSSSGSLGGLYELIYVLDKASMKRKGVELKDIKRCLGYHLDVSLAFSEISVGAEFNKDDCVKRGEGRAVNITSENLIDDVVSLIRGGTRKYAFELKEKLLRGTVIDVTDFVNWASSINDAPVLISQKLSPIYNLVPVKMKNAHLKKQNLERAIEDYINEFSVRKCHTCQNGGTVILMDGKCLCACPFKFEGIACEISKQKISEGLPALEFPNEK
UniProt P17931: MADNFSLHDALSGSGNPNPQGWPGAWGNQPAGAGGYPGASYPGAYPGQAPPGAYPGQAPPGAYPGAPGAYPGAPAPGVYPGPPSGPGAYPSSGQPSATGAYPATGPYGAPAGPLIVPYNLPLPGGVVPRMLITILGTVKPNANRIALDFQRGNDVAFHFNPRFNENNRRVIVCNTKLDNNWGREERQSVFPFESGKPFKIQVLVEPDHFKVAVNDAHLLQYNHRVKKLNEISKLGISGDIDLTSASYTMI

We go through 1 substance from patent US20250026838A1.

The target of the assay is human C9 (complement protein C9) (human) (UniProt P02748). The assay can be described thus: ELISA; galectin-3 coated, biotinylated aggregated C9, Avidin-HRP. A general note: In an ELISA, binding on a coated surface is turned into a signal by an enzyme label.

For “Human Galectin-3 (Gal3) protein (from UniProt P17931 1-250)”, the binding result was “binds”.
